Data taken from PMC12069581.
Results are given in words; binding and its absence hold for the method and conditions named. In cells and extracts the contact can be indirect. Some binding calls cover weakened binding; strength is not graded here. Tags and fused reporters may be left off the sequences shown. Each block holds one binder with its values, some of them ahead of it.

Chains of the proteins cited; added tags and fusions are not shown.
UniProt P26196: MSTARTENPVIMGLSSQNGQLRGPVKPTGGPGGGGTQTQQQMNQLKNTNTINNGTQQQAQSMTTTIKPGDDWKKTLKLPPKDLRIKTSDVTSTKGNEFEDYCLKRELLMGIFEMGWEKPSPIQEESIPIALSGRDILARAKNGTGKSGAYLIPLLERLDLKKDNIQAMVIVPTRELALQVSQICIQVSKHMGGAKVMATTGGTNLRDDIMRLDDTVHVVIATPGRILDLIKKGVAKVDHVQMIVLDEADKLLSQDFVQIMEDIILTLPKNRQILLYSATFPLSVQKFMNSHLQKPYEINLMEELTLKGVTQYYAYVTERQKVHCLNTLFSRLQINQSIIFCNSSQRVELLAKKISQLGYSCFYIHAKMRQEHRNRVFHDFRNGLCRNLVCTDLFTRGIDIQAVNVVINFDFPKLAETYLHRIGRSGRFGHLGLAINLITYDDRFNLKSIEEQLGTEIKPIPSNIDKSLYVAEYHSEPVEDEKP

Columns and labels:
flag-praja2 (wild-type) = biological target: T1, flag-praja2 (wild-type) (UniProt O43164); experiment: co-IP; HEK293 co-transfected with flag-praja2 and Gfp-DDX6; lysates immunoprecipitated with anti-flag, blotted with anti-flag, anti-Gfp, anti-DCP1A, anti-EDC3; lysis buffer 1% Triton, 150 mM NaCl, 50 mM Tris HCl pH 7.5, 1 mM EDTA
T1 sequence: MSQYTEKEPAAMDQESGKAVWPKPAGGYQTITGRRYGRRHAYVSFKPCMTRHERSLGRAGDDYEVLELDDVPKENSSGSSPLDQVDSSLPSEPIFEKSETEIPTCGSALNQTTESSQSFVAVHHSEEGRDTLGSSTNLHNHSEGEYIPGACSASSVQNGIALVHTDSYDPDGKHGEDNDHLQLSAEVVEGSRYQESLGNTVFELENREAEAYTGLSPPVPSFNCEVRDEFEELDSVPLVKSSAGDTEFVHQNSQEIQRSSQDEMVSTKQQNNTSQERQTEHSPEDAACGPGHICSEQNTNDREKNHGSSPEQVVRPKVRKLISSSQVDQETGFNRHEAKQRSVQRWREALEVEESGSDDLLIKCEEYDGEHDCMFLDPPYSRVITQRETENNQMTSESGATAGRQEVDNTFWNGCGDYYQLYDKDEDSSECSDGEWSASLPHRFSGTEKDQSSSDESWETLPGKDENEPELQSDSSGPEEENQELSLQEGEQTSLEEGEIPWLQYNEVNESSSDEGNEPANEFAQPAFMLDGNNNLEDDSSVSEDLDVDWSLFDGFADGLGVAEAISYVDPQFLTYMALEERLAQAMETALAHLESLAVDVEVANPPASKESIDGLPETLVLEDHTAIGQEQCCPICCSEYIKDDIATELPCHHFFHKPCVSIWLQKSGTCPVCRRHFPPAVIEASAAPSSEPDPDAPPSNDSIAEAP

DDX6-myc (human) = DDX6-myc (human) (UniProt P26196); experiment: co-IP; HEK293 co-transfected with flag-praja2 (wild-type or Δ530–630) and DDX6-myc; lysates immunoprecipitated with anti-myc, blotted with anti-myc and anti-flag; lysis buffer 1% Triton, 150 mM NaCl, 50 mM Tris HCl pH 7.5, 1 mM EDTA

binding (flag-praja2 (wild-type)): binds
B1: enhancer of mRNA decapping 3 (EDC3) (endogenous, HEK293) (protein, UniProt Q96F86 1-508)
chain: MATDWLGSIVSINCGDSLGVYQGRVSAVDQVSQTISLTRPFHNGVKCLVPEVTFRAGDITELKILEIPGPGDNQHFGDLHQTELGPSGAGCQVGINQNGTGKFVKKPASSSSAPQNIPKRTDVKSQDVAVSPQQQQCSKSYVDRHMESLSQSKSFRRRHNSWSSSSRHPNQATPKKSGLKNGQMKNKDDECFGDDIEEIPDTDFDFEGNLALFDKAAVFEEIDTYERRSGTRSRGIPNERPTRYRHDENILESEPIVYRRIIVPHNVSKEFCTDSGLVVPSISYELHKKLLSVAEKHGLTLERRLEMTGVCASQMALTLLGGPNRLNPKNVHQRPTVALLCGPHVKGAQGISCGRHLANHDVQVILFLPNFVKMLESITNELSLFSKTQGQQVSSLKDLPTSPVDLVINCLDCPENVFLRDQPWYKAAVAWANQNRAPVLSIDPPVHEVEQGIDAKWSLALGLPLPLGEHAGRIYLCDIGIPQQVFQEVGINYHSPFGCKFVIPLHSA

binding (DDX6-myc (human)): binds
B2: flag-praja2 (wild-type) (protein, UniProt O43164 1-708)
chain: T1 sequence
